Source: PubChem BioAssay AID485353 (National Center for Advancing Translational Sciences (NCATS), 2010)
Screen size: about 330,000 compounds; about 610 (0.18%) were called active. Inconclusive means that the source gave no clear call. Such entries were picked first, then a sample of the others. The call rests on the fitted dose curve. A potency beside an inconclusive call is a rough fit, not a confirmed value.

Test: qHTS of Yeast-based Assay for SARS-CoV PLP; further: nearly all actives have a fitted effect of over 55% in size; on activity, positive = growth rescue: 0% is about no effect
Details: S. cerevisiae expressing SARS-CoV PLpro; Potency: growth rescue; activity, positive = growth rescue: at 32.9 µM (top of the series)
Potency means the concentration at half of the fitted maximal effect.

SMILES | Potency | activity, positive = growth rescue
CC(=O)Nc1ccc(NS(=O)(=O)c2ccc3c(c2)oc(=O)n3C)cc1 | inconclusive: 2.82 µM [activator, single point] | 
O=C(O/N=C/c1ccc2c(c1)OCO2)c1ccccc1Cl |  | inactive: -12.2%
O=C(CN1CCN(C(C(=O)Nc2ccc(F)cc2)c2ccccc2)CC1)NC1CC1 (stereo unspecified) |  | inactive: -1.09%
Cc1c(NC(=O)C(C)C)cccc1-c1nc2ncccc2o1 | inconclusive: 3.98 µM [activator, full curve] | 
O=C(OCc1nc2ccsc2c(=O)[nH]1)c1cc(Br)c(Br)s1 | inconclusive: 22.4 µM [activator, single point] | 
CC(=O)Nc1ccc(S(=O)(=O)NCCCc2ccccc2)cc1 |  | inactive: 0.414%
Cc1oc(-c2ccc(Cl)cc2)nc1CSCC(=O)NC1CCN(Cc2ccccc2)CC1 | inconclusive: 14.1 µM [activator, single point] | 
CCCP(=O)(CC(=O)O)c1ccccc1 (stereo unspecified) | inconclusive: 10 µM [activator, partial curve] | 
CCOC(=O)c1c(C)oc2c1c(C(c1cccnc1)N1CCOCC1)c(O)c1ccccc12 (stereo unspecified) |  | inactive: -36.4%
CCOc1ccc(NC(=S)N2CCN(C/C=C/c3ccccc3)CC2)cc1 | inconclusive: 17.8 µM [activator, single point] | 
COC(=O)c1cc(NC(=O)c2c(F)c(F)c(F)c(F)c2F)cc(C(=O)OC)c1 | inconclusive: 3.98 µM [activator, single point] | 
Cc1cccc(N2CC(C(=O)Nc3nnc(SCCC4OCCO4)s3)CC2=O)c1 (stereo unspecified) | inconclusive: 3.98 µM [activator, single point] | 
CCCCCCC(=O)NNC(=O)c1c(O)c2ccccc2n(CC)c1=O | inconclusive: 1.41 µM [activator, full curve] | 
Cc1ccccc1OCCCCc1c(C)n[nH]c1C | inconclusive: 20 µM [activator, single point] | 
Cc1nc2ccccc2c2oc(C(=O)NCCN3CCCCC3C)cc12 (stereo unspecified) | inconclusive: 0.355 µM [activator, partial curve, poor fit] | 
COc1ccc(OC)c(C2C3=C(CCCC3=O)Nc3c2c(=O)n(C)c(=O)n3C)c1 (stereo unspecified) | inconclusive: 4.47 µM [activator, single point] | 
O=C(Cn1c(O)c(/C=C2\C=Nc3ccccc32)sc1=O)Nc1ccc2c(c1)OCO2 | inconclusive: 10 µM [activator, single point] | 
O=[N+]([O-])c1ccc(/C=N\N2CCN(c3ccc(Cl)cc3)CC2)cc1 |  | inactive: 18.2%
CCOc1cc(Br)cc(/C=N/NC(=O)c2cccnc2)c1O | inconclusive: 14.1 µM [activator, single point] | 
O=S(=O)(c1ccc(NCc2ccccc2)cc1)N1CCOCC1 |  | inactive: -3.22%
O=C(CSc1cnc2ccccc2n1)c1ccc(F)cc1 | inconclusive: 0.398 µM [activator, full curve, poor fit] | 
CCOC(=O)c1cc(-c2cccs2)nn1CCC#N | inconclusive: 4.47 µM [activator, partial curve] | 
CC(=O)c1ccc(NC(=O)CCC(=O)OCC(F)(F)C(F)F)cc1 | inconclusive: 3.16 µM [activator, single point] | 
O=C(c1ccc(Cl)cc1)c1c[nH]c(C(=O)NNc2ccccc2)c1 |  | inactive: 0.0142%
O=C(NCC(=O)N1CCN(C(=O)c2ccco2)CC1)c1ccc(Br)cc1 |  | inactive: -10.5%
Cc1ccc(C2CC2C(=O)NNC(=S)Nc2ccc(Cl)cc2)cc1 (stereo unspecified) | inconclusive: 11.2 µM [activator, partial curve] | 

SMILES | Potency | activity, positive = growth rescue
O=[N+]([O-])c1c(NCCCO)cc(SCc2ccco2)c2nonc12 |  | inactive: -8.11%
CCCN1CN(Cc2ccccc2)CNC1=S | active: 11.2 µM | 
Fc1ccc(/C=N/N2CCN(Cc3ccccc3)CC2)cc1 |  | inactive: -2.51%
Cc1occc1-c1nnc(SCC(=O)c2ccc(Cl)cc2)n1CC1CCCO1 (stereo unspecified) |  | inactive: 0.495%
COc1ccc(C(=O)NC(=S)NC2CCSC2=O)cc1 (stereo unspecified) | inconclusive: 20 µM [activator, single point] | 
O=C(CSc1ccc([N+](=O)[O-])cn1)Nc1nccs1 | inconclusive: 0.355 µM [activator, full curve] | 
COc1cccc(/C=N/NC(=O)C(=O)N2CCCC2)c1O | inconclusive: 10 µM [activator, partial curve] | 
C=CCOC(=O)COc1ccc2c(C)c(CC)c(=O)oc2c1 | inconclusive: 20 µM [activator, single point] | 
O=C(N[C@H](Cc1cc(=O)[nH]c2ccccc12)C(=O)O)c1ccc(Cl)cc1 |  | inactive: 2.58%
CCc1ccccc1NC(=S)N(CCCN1CCOCC1)Cc1cccs1 | inconclusive: 2.82 µM [activator, single point] | 
COCCN=c1scc(-c2ccco2)n1/N=C/c1ccc(O)c(O)c1O | inconclusive: 8.91 µM [activator, partial curve] | 
Nc1ncnc2c1C1(CCCCC1)Cc1ccccc1-2 | inconclusive: 22.4 µM [activator, single point] | 
CN(C)S(=O)(=O)N1CCC(Oc2cccc(C(=O)NC3CCCCCC3)c2)CC1 | inconclusive: 17.8 µM [activator, single point] | 
CC(Sc1nc(N2CCCCC2)c2c(c1C#N)CCCC2)C(=O)O (stereo unspecified) | inconclusive: 3.98 µM [activator, single point] | 
CCOC(=O)C(Nc1ccc2ccccc2c1)C(=O)OCC |  | inactive: -62%
O=C(/C=C/c1ccc(Cl)cc1Cl)NCCN1CCOCC1 | inconclusive: 3.16 µM [activator, single point] | 
Cc1nc2sc(C(c3ccccc3)N3CCN(C(=O)c4ccco4)CC3)c(O)n2n1 (stereo unspecified) | inconclusive: 22.4 µM [activator, single point] | 
COc1cccc(/C=C2/Sc3ccc(C(=O)NCCN4CCCC4)cc3NC2=O)c1 | inconclusive: 3.98 µM [activator, single point] | 
Cc1c(N=Cc2ccc[nH]2)c(=O)n(-c2ccccc2)n1C | inconclusive: 3.55 µM [activator, partial curve] | 
CC(O)/C=C/C1OC(=O)CC1Nc1ccc(C=O)cc1 (stereo unspecified) |  | inactive: 0.592%
COC(=O)c1scc(C)c1NC(=O)CSc1ccc(Cl)cc1 | active: 0.708 µM | 
CCC(=O)Nc1ccc(Cl)c(NC(=O)c2c(OC)cccc2OC)c1 |  | inactive: -0.796%
CC(NC(=O)CCC(=O)c1ccccc1)c1ccc(F)cc1 (stereo unspecified) |  | inactive: -1.49%
O=C(CN1CCc2ccccc2C1)Nc1cc(S(=O)(=O)N2CCOCC2)ccc1N1CCCC1 |  | inactive: 0.612%
COC(=O)c1[nH]c2ccc(C)cc2c1NC(=O)c1ccccc1[N+](=O)[O-] | inconclusive: 11.2 µM [activator, single point] | 
C#CCNC(=O)C1=C[C@H](c2ccc3c(c2)OCO3)C[C@H](OCc2ccc(CO)cc2)O1 |  | inactive: -3.02%

Reformatted as labelled records: entries from further up.
O=[N+]([O-])c1ccc(/C=N\N2CCN(c3ccc(Cl)cc3)CC2)cc1
  activity, positive = growth rescue: inactive: 18.2%
C#CCNC(=O)C1=C[C@H](c2ccc3c(c2)OCO3)C[C@H](OCc2ccc(CO)cc2)O1
  activity, positive = growth rescue: inactive: -3.02%

Remaining list, next part:

SMILES | Potency | activity, positive = growth rescue
O=C(CN(Cc1ccccc1)S(=O)(=O)c1ccccc1)N/N=C/c1ccc([N+](=O)[O-])cc1 | inconclusive: 4.47 µM [activator, single point] | 
O=C(CSc1nc2nn(-c3ccccc3)c(=O)c-2c2n1CCCCC2)c1ccc(O)c(O)c1 | active: 7.08 µM | 
CC(=O)n1c2ccccc2c2c1c1ccccc1n2C |  | inactive: 2.32%
CC(C)n1c(O)c(N=NC(=O)CNC(=O)CCc2ccccc2)c2ccccc21 |  | inactive: 0.14%
CCC(=O)N1N=C2C3CCN(CC3)C2C1c1ccccc1 (stereo unspecified) |  | inactive: -0.77%
COc1ccc(C2NC(Cc3ccccc3)(C(=O)O)C3C(=O)N(c4ccccc4OC)C(=O)C23)cc1 (stereo unspecified) |  | inactive: -1.38%
COc1ccc2cc(C(=O)N/N=C/c3sc4ccccc4c3O)ccc2c1 | active: 5.01 µM | 
Cc1ccc(N=C2NC(=O)/C(=C/C=C/c3ccco3)S2)cc1 |  | inactive: -21.9%
C=CCN1C(=O)C(Cc2cccc(Cl)c2)S/C1=N/N=C/c1ccco1 (stereo unspecified) | inconclusive: 0.398 µM [activator, partial curve, poor fit] | 
CC(C)(C)C(=O)/C=c1\[nH]c(=O)/c(=C\c2ccc(C#N)cc2)s1 |  | inactive: -1.02%
N#Cc1c(N)nc2c(c1-c1cccnc1)CCCCC2 | inconclusive: 4.47 µM [activator, single point] | 
CC1CCCC(NC(=O)NC(=O)COC(=O)c2ccc(O)cc2O)C1C (stereo unspecified) |  | inactive: 1.55%
COc1ccc(C(=O)Oc2ccc(N(C)S(=O)(=O)c3ccccc3)cc2)cc1[N+](=O)[O-] | inconclusive: 15.8 µM [activator, partial curve] | 
COc1ccc(-c2noc(C3CCCN(C(=O)c4cccs4)C3)n2)cc1 (stereo unspecified) | inconclusive: 4.47 µM [activator, single point] | 
CC[C@@]1(C(=O)OC)N[C@H](CN(C)C(=O)Nc2ccc(OC)cc2)[C@@H]2C(=O)N(Cc3ccccc3)C(=O)[C@@H]21 |  | inactive: -5.98%
CCCCCCCN1N=C(C)C(C(=O)c2ccccc2)C1=O (stereo unspecified) | active: 10 µM | 
CCCN1CN(CCc2ccccc2)CNC1=S | inconclusive: 5.01 µM [activator, partial curve] | 
COc1ccc(CNC(=O)/C=C/c2ccco2)cc1OC |  | inactive: 1.14%
C=CCN(C(=O)CN1CCCCC1)c1nc(-c2ccccc2)cs1 | inconclusive: 20 µM [activator, single point] | 
O=C(NN=Cc1ccc(O)cc1O)c1ccccc1NS(=O)(=O)c1cccs1 | active: 1.12 µM | 
CCOC(=O)CNC(=O)c1ccc(OCC(F)(F)F)cc1 |  | inactive: -0.617%
O=C1CCC2(C(=O)O)Sc3ccccc3N12 (stereo unspecified) |  | inactive: 9.53%
O=C(COC(=O)c1cccc(-n2cnnn2)c1)Nc1c(Cl)cccc1C(F)(F)F | inconclusive: 20 µM [activator, single point] | 
CC(C)C(=O)N1CCc2cc(-c3csc(N)n3)ccc21 | inconclusive: 20 µM [activator, single point] | 
